# This is one part of the list.
# Tested on: T1, CTL2-GFP (C. trachomatis L2/434/Bu, GFP-expressing)
# T1 construct: L2/434/Bu, GFP-expressing
# Design: species or system HeLa; Intracellular C. trachomatis growth in HeLa cells, bulk GFP fluorescence relative to DMSO
# Conditions: bulk GFP, single well; 28.5 h, 10 µM; inhibitor
row,Structure (SMILES),% of control remaining [%]
1,O=C(c1cccnc1)N1CCN(S(=O)(=O)c2ccc(F)cc2)CC1 [CBK264210],126.168
2,O=C(Nc1ccc(Cl)cc1)Nc1cccc(C(=O)O)c1 [CBK269404],98.8959
3,COc1ccccc1Cc1cccc(C2CCN(C(=O)c3ccccc3)CC2)n1 [CBK286236],99.5331
4,O=C(N[C@H]1CCN2C(=O)c3cc(-c4ccccc4F)ccc3NC(=O)[C@H]12)c1cnccn1 [CBK289274],125.381
5,O=C(Nn1cnnc1)c1ccccc1F [CBK027603],149.104
6,OCC1OC(n2cnc3c(Oc4ccccc4)ncnc32)CC1O (stereo not drawn) [CBK201181],147.217
7,CC(C)(C)OC(=O)N1CCCN(Cc2nc(-c3cccnc3)no2)CC1 [CBK305309],81.8007
8,O=C(O)c1cccc(NS(=O)(=O)c2ccc(OC(F)(F)F)cc2)c1 [CBK155077],98.3193
9,CC1=NN(c2ccc(C)cc2)C(=O)/C1=C\Nc1ccc(S(=O)(=O)Nc2nc(C)cc(C)n2)cc1 [CBK262398],13.5862
10,CCN1CCN(c2ccc(NS(=O)(=O)c3ccccc3)c3ccccc23)CC1 [CBK200011C],116.387
11,CC(=O)Nc1ccc(S(=O)(=O)Nc2ccc(C(=O)Nc3ccc(F)cc3)cc2)cc1 [CBK050401],13.9373
12,CCN(CC)C(=O)C1CCCN(C(=O)NCc2ccc(C#N)cc2)C1 (stereo not drawn) [CBK156132],103.294
13,COc1ccc2cc(C(=O)NCCCc3ccccn3)n(C)c2c1 [CBK282545],118.91
14,O=C1c2ccccc2C(=O)N1CCOc1nccnc1-c1ccsc1 [CBK106760],116.515
15,Clc1ccc(CSc2cccs2)cn1 [CBK002639],110.454
16,COc1ccccc1CN(CCCn1ccnc1)Cc1ccco1 [CBK283116],115.3
17,CCN(CC)CCNc1nc2c(=O)[nH]c(=O)n(C)c2[nH]1 [CBK287918],97.5156
18,CCOc1cc(C)c(C(C)C)cc1S(=O)(=O)NCCN1CCOCC1 [CBK268727],152.291
19,COc1cc2c(cc1OC)C(CCN1CCN(c3ccc(Cl)cc3)CC1)OCC(C)(C)C2 (stereo not drawn) [CBK024051C],128.773
20,CC1(C)CC(=O)c2sc(NC(=O)c3ccccc3)nc2C1 [CBK287318],124.586
21,COc1ccc(CN2CC[C@@H]3[C@H](C2)[C@@H](c2ccc(F)cc2)CN3C(=O)c2ccccc2)cc1 [CBK286290],67.7471
22,C1=NC2C(COCc3ccccc3)CCC2N1c1ccccc1 (stereo not drawn) [CBK010679],113.638
23,COc1ccc2cc(CNc3ccc(F)c([N+](=O)[O-])c3)c(Cl)nc2c1 [CBK295133],164.126
24,O=C(O)c1cc(-c2ccc3c(c2)OCCO3)nc2ccccc12 [CBK262422],120.273
25,CCCCN(C)C(=O)Cn1nc(C)c2ccccc2c1=O [CBK305050],109.878
26,Fc1ccccc1CSc1nc2ncccc2[nH]1 [CBK287883],103.231

row,Structure (SMILES),% of control remaining [%]
1,Cn1nc(C(C)(C)C)cc1C(=O)N1CCNC(=O)C1Cc1ccc(-c2cccs2)cc1 (stereo not drawn) [CBK285810],133.649
2,COc1ccccc1NC(=O)CSc1nnc(-c2ccncc2)o1 [CBK287743],140.019
3,CCC(CO)NC(=O)c1cnc(-c2cccc(C)c2)c(-c2ccc(OC)cc2)c1 (stereo not drawn) [CBK037460],177.777
4,Cc1[nH]c2ccccc2c1/C=C1/SC(=S)N(CC(=O)O)C1=O [CBK262220],100
5,O=C(Nc1ccccc1C(=O)O)c1cccc(-n2cnnc2)c1 [CBK269769],120.149
6,CC(=O)Nc1ccc(NC(=O)C2COc3ccccc3O2)cc1C (stereo not drawn) [CBK269898],105.085
7,COc1ccc(C)cc1S(=O)(=O)N(C)CC(=O)O [CBK267863],133.741
8,Cc1nccn1CCCn1cncc1-c1ccc2c(c1)CCCN2C [CBK282962],104.744
9,CN(C)CCNc1nccc2sc(S(=O)(=O)NCCC3=CCCCC3)cc12 [CBK038244C],117.245
10,COc1cc(C2c3c(oc4ccc(Cl)cc4c3=O)C(=O)N2CC2CCCO2)ccc1OCc1ccccc1 (stereo not drawn) [CBK267581],131.293
11,CC(C)c1ccc(S(=O)(=O)N(C)Cc2cccnc2)cc1 [CBK043582],83.6089
12,O=S(=O)(c1ccccc1)c1cn2ccnc2c(N2CCNCC2)n1 [CBK200021T],90.9431
13,CC(=O)Nc1ccc(C(=O)N2CCC(c3cccc(Cc4ccccc4Cl)n3)CC2)cc1 [CBK286111],121.293
14,O=C1CCN(Cc2ccccc2)CCN1Cc1cccc(F)c1 [CBK284466],137.695
15,CCC(=O)NC(NC(=S)Nc1cccc2cccnc12)C(Cl)(Cl)Cl (stereo not drawn) [CBK261027],100
16,O=C(c1ccc2c(c1)C(=O)N(c1ccncc1)C2=O)c1ccc2c(c1)C(=O)N(c1ccncc1)C2=O [CBK261194],100
17,COC(=O)c1ccccc1NC(=O)CC1Nc2ccccc2NC1=O (stereo not drawn) [CBK269276A],119.229
18,COc1ccc(-c2nnc3ccc(SC(C)C)nn23)cc1OC [CBK287526],124.229
19,CCn1cc(CC(=O)NCCn2ccc(C)n2)c2ccccc21 [CBK282670],106.724
20,CCn1c(SCC(=O)N2CCC(C(N)=O)(N3CCCCC3)CC2)nnc1-c1ccccc1 [CBK266135],130.98
21,Cc1nonc1NC(=O)CN1CCCCC1 [CBK261839],116.171
22,Nc1nccn(CCOc2cc(F)c(F)cc2F)c1=O [CBK138204T],178.487
23,COCC(=O)N[C@H]1C[C@H]2C(=O)Nc3ccc(/C=C/c4ccccc4)cc3C(=O)N2C1 [CBK289366],8.922
24,O=C(c1cccs1)N1CCC(c2nnc3n2CCCCC3)CC1 [CBK284626],109.715
25,O=S(=O)(Nc1nnc(C(F)(F)F)s1)c1ccc(-c2cc(C(F)(F)F)on2)s1 [CBK062019],89.7676

# Reference: PMC12040169 (PLOS Biology, 2025)
